From ChEMBL document CHEMBL3988442, “University of Dundee, Small-Polar-MMV Screening Library” (2021).

Values are the deposited “Percent Effect”, in %. The controls that fix the scale are not given in the record; negative values are as filed. This is an unselected part of the compounds tested.

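Whole-cell assay for inhibitors of Mycobacterium tuberculosis growth, labelled Cornell in the record; the read-out is not stated. The concentration is filed as 10 mM, unlikely as a test dose, so the dose is not known. Higher means stronger inhibition (inferred from two other growth screens of the library). About 53,000 compounds were tested under these conditions; 1.7% (about 900) showed 50% or more at least once.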

compound | percent effect
Cc1nccn1-c1ccc(C(C)NCCc2ccccn2)cc1 (stereo not given) | -34.26
Cc1c(S(=O)(=O)NCC(C)Cn2cc(Cl)cn2)cnn1C (stereo not given) | 8.631
O=C(O)C(F)(F)F.O=C(O)C(F)(F)F.O=C(O)C(F)(F)F.[H][C@@]12OCCN(Cc3cccc(C)n3)[C@@]1([H])CC[C@@H]2OCc1ccncc1 | 14.56
CN1CCN(C(=O)c2cccn2C)c2ccccc2C1 | -21.31
CN(C)c1nc2c(c(N3CCC4(CCCNC4=O)C3)n1)CCCC2 (stereo not given) | -28.54
Cc1cc(NCc2ccc(O)cc2)n2nc(C)cc2n1 | 1.745
CCN(C(=O)CN1CCn2c(nnc2C2CC2)C1)C1=CCCCC1 | 0.2163
COc1ccc2c(c1)OC1(CCN(Cc3ccc(F)cc3)CC1)CC2=O | 12.18
CN1CCN(C(=O)c2cnsn2)c2cc(F)ccc21 | 16.08
CN1CCC(NC(=O)NCc2csc(Br)c2)CC1 | 2.318
CNC(=O)c1cccc(CNC(C)c2ccc(F)cc2N(C)C)c1 (stereo not given) | 0.1924
Brc1ccc(NCc2ccc(Cn3ccnc3)cc2)nc1 | 7.803
Cc1ccc(C)c(C(C(=O)O)N2CCCN(Cc3ccccn3)CC2)c1 (stereo not given) | 7.838
[H][C@@]12CCN(Cc3nc(C)cs3)C[C@]1([H])OCCN(c1cccnc1)C2=O | -32.99
O=C(O)C(F)(F)F.[H][C@]12CCN(CC3CC3)C[C@@]1([H])OCCN(C(=O)c1ccco1)C2 | -4.508
Cc1ccc(CNC(=O)N(C)Cc2ccc([S+](C)[O-])cc2)s1 (stereo not given) | 20.31
Cc1ccc(CN(Cc2[nH]cnc2C)C2CC(C)(C)NC(C)(C)C2)o1.O=C(O)CC(O)(CC(=O)O)C(=O)O | -20.09
CN(C)CCOc1ccccc1N1CCN(C(=O)C(C)(C)C#N)CC1 | 9.838
CC(C)N1CCC(Nc2ccn(C)n2)C1=O (stereo not given) | -10.38
COCC(=O)N1CCCC1(C(=O)N(C)C)c1cnccn1 (stereo not given) | 19.92
CC(C)COC(C)C(=O)N1CCN(S(C)(=O)=O)CC1 (stereo not given) | 10.54
Cc1nc(CN2CCC(N(C)Cc3noc(C(C)C)n3)C2)cs1 (stereo not given) | -29.58
CCCSCC(=O)Nc1ncn(CC(=O)NCc2ccccc2)n1 | 19.3
O=c1[nH]ncc(NCCOc2ccc3c(c2)OCO3)c1Cl | 28.71
O=C1CCC(C(=O)N2CCOC(Cc3cccc4ccccc34)C2)=NN1 (stereo not given) | 4.212
O=C(O)[C@@H]1CN(C(=O)CCc2ccccn2)C[C@H]1c1ccccc1 | 34.54
c1ncn(Cc2nnc(C3CCN(CC4CC4)CC3)n2C2CC2)n1 | 1.514
CCOC(=O)CN1C(=O)CN(S(C)(=O)=O)CCC(OC)c2ccccc21 (stereo not given) | 1.697
CN(Cc1ncc[nH]1)S(=O)(=O)c1cccc(C(=O)N2CCOCC2)c1 | -35.41
CCC1CCC(NCCN2CCOCC2)CC1 (stereo not given) | 4.946
CCNc1ncc(C(=O)NCCc2csc(CSC)n2)cn1 | 1.118
[H][C@@]12C[C@H](C(=O)Nc3ccccc3)[C@@]([H])(CN(S(=O)(=O)c3ccccc3)C1)O2 | 19.11
CC(=O)N(C)CC(=O)NCC1(c2c(F)cccc2F)CCCC1 | 11.42
CC(=O)N1CCC(c2c(CN(C)C)cnc3cc(C)nn23)CC1 | -33.45
CCc1nc(C2CCCN2Cc2nc(CCOC)no2)no1 (stereo not given) | -30.5
CCn1cc(NC(=O)C(C)n2ncc(Cl)c2C)c(C(=O)NCC(C)C)n1 (stereo not given) | 41.25
CN(C)Cc1ccnc(C2CCCN2Cc2ccc3ncccc3c2)n1 (stereo not given) | -37.47
COCCN1CCC(CNC(=O)C2(c3cccc(Cl)c3)CC2)C1 (stereo not given) | 10.25
CCN(CC)C(=O)C1CCN(C(=O)Nc2cccnc2OC)CC1 | -12.32
O=C(O)C(F)(F)F.[H][C@@]12CN(C(=O)c3ccoc3C)C[C@]1([H])OCCN2c1ncccn1 | 31.11
Cc1cccnc1NC(=O)CNC(=O)c1ccccc1Cl | 6.935
O=C(O)C(F)(F)F.O=C(O)C(F)(F)F.[H][C@@]12CCN(Cc3ccc4c(c3)OCO4)C[C@]1([H])[C@@H](CN1CCCC1)OC2 | -12.54
c1ccc(CCCN2CCCN(c3ncnc4[nH]ccc34)CC2)cc1 | 3.591
COCCCOc1ccc(C(=O)N(C)Cc2cccc(O)c2)cn1 | -16.71
Cc1ccc(C(O)CN(C)Cc2cnn(C)c2)cc1C (stereo not given) | 2.152
Cc1oc(C(=O)O)cc1S(=O)(=O)Nc1cc(Br)ccc1Cl | -7.706
O=C(CN1CCCCCC1)NCc1ccc2[nH]c(=O)[nH]c2c1 | 11.09
Cc1cccc(CN2CCOC3(COCCN(CCN(C)C)C3)C2)n1.O=C(O)C(F)(F)F.O=C(O)C(F)(F)F.O=C(O)C(F)(F)F (stereo not given) | 12.37
Cc1nc(COC(=O)c2cccnc2C)no1 | 10.02
Cn1cc(CN2CCCC23CCN(S(C)(=O)=O)CC3)cn1 | 8.038
CCOC(=O)NC(=O)CSC(C)c1ccccc1F (stereo not given) | -5.834
O=C(CN1CCSC(c2ccccc2)C1)NCc1ccccn1 (stereo not given) | 6.261
CN(CCn1cccn1)S(=O)(=O)c1cccc(F)c1C#N | 2.631
Cc1nn(CCC(=O)N2CCCC(OCc3cccnc3)C2)c(C)c1C (stereo not given) | 17.08
COc1cc(C(=O)O)ccc1OCC(=O)NCCc1ccccc1 | 15.13
COc1ccc2c(c1)nc1n2[C@@H](CNC(=O)c2cccnc2)COC1 | -9.76
CC(C)c1n[nH]c(C2CN(C(=O)c3cn4ccccc4n3)CCO2)n1 (stereo not given) | -16.79
FC(F)(F)CN1CCC(CCNc2ncccn2)CC1 | 23.81
O=C(C1=CCCCC1)N1CCC2(CC1)COC(COc1ccccn1)C2.O=C(O)C(F)(F)F (stereo not given) | 13.8
CS(=O)(=O)NC[C@H]1OC[C@@H](NC2CCC(F)(F)CC2)[C@@H]1O | -2.292
Cc1ccc(CNC(=O)CN2CCCC(Cn3cncn3)C2)cc1 (stereo not given) | 0.1336
CCc1nc(CN(C)C(=O)C2CC(=O)N(c3cccc(O)c3)C2)no1 (stereo not given) | 17.13
Cc1ccc(C(C(=O)N(C)CCc2cn[nH]c2)N(C)C)cc1 (stereo not given) | -16.02
Cc1ccncc1CN1CCOCC1c1[nH]ncc1C (stereo not given) | 42.37
N#Cc1ccnc(N2CCN(CC(O)c3ccc(F)c(F)c3)CC2)c1 (stereo not given) | 8.957
CC(=O)N[C@H]1CCO[C@@H](c2cccc(NC(=O)C(C)(C)C)c2)C1 | 41.98
Nc1nc(N)c2c(n1)OC1(CCN(Cc3nccs3)C1)C2 (stereo not given) | -3.629
CC(C)(C)Oc1ccc(NCC(=O)NCc2ccco2)cc1 | 108
CCn1nc(C)c(CCNC(=O)C2CCCN(CC(N)=O)C2)c1C (stereo not given) | 19.44
Cc1ccc(-c2noc(Cn3nc(C(N)=O)ccc3=O)n2)cc1 | -0.893
[H][C@]12CCN(C(=O)NC3CCCC3)CC[C@@]1([H])S(=O)(=O)N(CCC(C)C)C2 | 22.37
O=C(Cn1ccc2c(Cl)cccc21)N1CCC2(CC1)OCCO2 | -32
CO[C@@H]1CN(c2ccccc2)S(=O)(=O)[C@@]12CCN(CC1CC1)C2 | 23.2
O=C(O)C(F)(F)F.[H][C@@]12COC[C@@H](C(=O)Nc3cnccn3)[C@]1([H])CN(C1CCCC1)C2 | 16.42
COc1ccc(C(=O)N(CCC#N)Cc2ccccn2)cc1 | -8.538
O=C(c1cnc(Nc2ccccc2)nc1)N1CCC2(CCNCC2)CC1 | 22.24
CC(C)c1nnc2n1CCN(C(=O)c1ccc(Cn3cccc3)cc1)C2 | -46.46
N#CCCN(CC1CCOC1)Cn1ccc(-c2ccccc2)n1 (stereo not given) | 17.84
Cc1noc(C)c1CNCC1COCc2c(-c3ccsc3)nnn2C1.O=C(O)C(F)(F)F (stereo not given) | -6.215
Cc1nccc(C2CN(Cc3ccc(-c4ccccc4C(=O)O)o3)C2)n1 | 19.38

Some entries from above, unchanged:

- CC(=O)N(C)CC(=O)NCC1(c2c(F)cccc2F)CCCC1 : 11.42%
- Cn1cc(CN2CCCC23CCN(S(C)(=O)=O)CC3)cn1 : 8.038%
- Cc1oc(C(=O)O)cc1S(=O)(=O)Nc1cc(Br)ccc1Cl : -7.706%
- COCC(=O)N1CCCC1(C(=O)N(C)C)c1cnccn1 (stereo not given) : 19.92%
- Cc1c(S(=O)(=O)NCC(C)Cn2cc(Cl)cn2)cnn1C (stereo not given) : 8.631%
- COc1ccc2c(c1)nc1n2[C@@H](CNC(=O)c2cccnc2)COC1 : -9.76%